Experimental data taken from patent US9751945.
These are yes or no findings as the source states them, for the method shown. Some binding calls cover weakened binding; strength is not graded here. Sequences can lack the tags named with a protein.

Chains of the proteins cited; added tags and fusions are not shown. Lines headed by an entry give the natural chain unless they say otherwise; changes in a name come on top.
UniProt P14434: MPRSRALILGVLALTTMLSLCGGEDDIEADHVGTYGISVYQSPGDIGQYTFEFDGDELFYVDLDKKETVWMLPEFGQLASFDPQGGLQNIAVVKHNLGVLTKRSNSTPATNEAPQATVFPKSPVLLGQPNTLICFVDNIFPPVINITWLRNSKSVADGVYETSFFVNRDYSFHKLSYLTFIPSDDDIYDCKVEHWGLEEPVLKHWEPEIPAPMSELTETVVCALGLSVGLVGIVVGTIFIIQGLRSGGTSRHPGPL
UniProt P14483: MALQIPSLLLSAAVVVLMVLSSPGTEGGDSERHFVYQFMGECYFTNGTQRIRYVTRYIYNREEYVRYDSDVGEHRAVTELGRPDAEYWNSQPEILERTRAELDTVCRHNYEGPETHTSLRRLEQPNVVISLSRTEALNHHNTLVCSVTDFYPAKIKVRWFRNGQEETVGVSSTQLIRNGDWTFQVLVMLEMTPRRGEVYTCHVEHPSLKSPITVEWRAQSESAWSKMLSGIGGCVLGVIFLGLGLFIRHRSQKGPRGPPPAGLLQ

Molecular target: murine MHC class II (MHCII) complex (murine) (UniProt P14434+P14483)
Test: flow cytometry of murine splenocytes costained with fluorophore-sortagged VHH7 and anti-CD3 or anti-B220

B1: Sortaggable VHH7 polypeptide lacking a hinge region, fluorophore-sortagged (VHH)
VHH: QVQLQESGGGLVQAGDSLRLSCAASGRTFSRGVMGWFRRAPGKEREFVAIFSGSSWSGRSTYYSDSVKGRFTISRDNAKNTVYLQMNGLKPEDTAVYYCAAGYPEAYSAYGRESTYDYWGQGTQVTVSS
Question: B1 was tested. Which binding did it give?
Answer: Its binding is “binds”.
